Measured values reported in PubChem BioAssay AID1671190 (National Center for Advancing Translational Sciences (NCATS), 2021).
Several values for one entry are separate records, joined by “and”; a condition that tells them apart may be missing. Equal values may be shown once. Out of some 580,000 compounds screened, about 6,100 (1.1%) were called active. Inconclusive results, whose numbers are uncertain, are shown with a selection of clear calls. The call rests on the fitted dose curve; in most records, active means well fitted inhibition curve with a large enough effect; inconclusive means small, poorly fitted or top-dose-only effect, or another doubt; inactive means no such curve, though single readings can be large or run the other way. Potencies beside an inconclusive call are fits to weak or partial responses and may not hold up.

Sequences of proteins named here, by UniProt entry; tags and fusion partners are left off. A change or cut given only in a name is not applied to a line headed by its entry.
UniProt P18054: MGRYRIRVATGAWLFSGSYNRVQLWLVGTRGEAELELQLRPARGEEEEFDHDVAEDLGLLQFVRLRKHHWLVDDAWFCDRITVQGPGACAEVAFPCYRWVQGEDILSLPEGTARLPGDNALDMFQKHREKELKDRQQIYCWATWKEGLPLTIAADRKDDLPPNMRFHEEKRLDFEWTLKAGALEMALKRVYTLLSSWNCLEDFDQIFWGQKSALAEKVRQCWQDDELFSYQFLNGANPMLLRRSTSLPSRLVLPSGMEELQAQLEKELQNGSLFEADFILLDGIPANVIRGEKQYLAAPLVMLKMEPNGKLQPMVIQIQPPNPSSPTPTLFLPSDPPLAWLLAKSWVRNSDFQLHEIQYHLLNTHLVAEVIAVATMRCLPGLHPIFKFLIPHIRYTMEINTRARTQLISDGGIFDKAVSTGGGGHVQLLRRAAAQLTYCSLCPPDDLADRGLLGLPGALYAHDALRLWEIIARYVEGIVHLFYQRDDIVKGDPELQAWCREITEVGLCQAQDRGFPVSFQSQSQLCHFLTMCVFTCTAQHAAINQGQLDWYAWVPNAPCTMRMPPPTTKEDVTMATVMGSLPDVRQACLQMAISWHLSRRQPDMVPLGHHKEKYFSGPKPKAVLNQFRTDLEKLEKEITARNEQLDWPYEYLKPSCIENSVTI

target: Polyunsaturated fatty acid lipoxygenase ALOX12 (Homo sapiens) (UniProt P18054); assay: Primary qHTS assay for inhibitors of human arachidonate 12S-lipoxygenase (ALOX12): Round 2; details: purified 12hLO, xylenol orange hydroperoxide absorbance; activity change, negative = inhibition: at 108 µM (top of the series) unless noted
Summary of the method: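 Hydroperoxide product was detected by ferrous iron/xylenol orange as the 573 to 405 nm absorbance ratio. Arachidonic acid at 40 uM (final) was turned over for 30 min at room temperature by 150 nM human 12hLO, pH 7.0 Hepes buffer, after 15 min compound preincubation.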
On the % scale 0 is the no-effect control and ±100 the full control effect; potency means the concentration at half of the fitted maximal effect.

Structure (SMILES) | Potency | activity change, negative = inhibition
CCN(CC)CCC(=O)N1c2ccccc2Sc2ccc(Cl)cc21 | inconclusive: 50.1 µM [inhibitor, partial curve, poor fit] | –
O=C1CCC(C(=O)N2CCN(c3ccc(Cl)cn3)CC2)CN1CCc1ccccn1 (centres undefined) | inconclusive: 89.1 µM [inhibitor, single point] | –
O=C(COC(=O)CNC(=O)c1ccc(Cl)cc1)Nc1ccc(Cl)cn1 | inconclusive: 79.4 µM [inhibitor, partial curve, poor fit] | –
CCCCCOC(=O)C(C)c1c(C)[nH]c(=S)[nH]c1=O (centres undefined) | inconclusive: 25.1 µM [inhibitor, partial curve, poor fit] | –
CCCNC(=O)N1[C@@H]2Cn3c(cccc3=O)[C@H]1[C@@H](C(=O)NCC(F)(F)F)[C@@H]2CO | inconclusive: 100 µM [inhibitor, single point] | –
CN(C)S(=O)(=O)N1CCN(C(=O)Cc2ccc(Cl)cc2Cl)CC1 | inactive | –
C#CCOCCOCCOCCNc1nc(N2CCN(C(=O)[C@H](C(C)C)n3cc(CCO)nn3)CC2)nc(N2CCN(C(=O)[C@H]([C@@H](C)CC)n3cc(CCC(=O)O)nn3)CC2)n1 | inconclusive: 7.08 µM [inhibitor, full curve] | –
CC(C)(C)S(=O)N1Cc2cc(C(=O)NCC(F)(F)F)nc(-c3cccc(-c4cccc(F)c4)c3)c2[C@H]1CCO (some centres undefined) | inconclusive: 4.47 µM [inhibitor, full curve, poor fit] | –
CCN(CC)c1ccc(NS(=O)(=O)c2cc(C)cc(C)c2)cc1C(=O)O | inconclusive: 15.8 µM [inhibitor, partial curve, poor fit] | –
CC(=O)Nc1ccc(NC(=S)NC(=O)c2ccc(-c3ccccc3)cc2)cc1 | inconclusive: 5.62 µM [inhibitor, full curve, poor fit] | –
CN(C)C1=NC[C@H](Cc2ccccc2)N1CC1CCCCCC1 | inactive | –
CCn1c2ccccc2c2cc(CN3CCN(S(=O)(=O)CC)CC3)ccc21 | inconclusive: 7.94 µM [inhibitor, full curve, poor fit] | –
Cc1cc(N(C)Cc2ccccc2)nc(-c2ccccc2)n1 | – | inconclusive: -48.8% [inhibitor]
CC(=O)c1ccc(NC(=O)c2cnn(-c3cccc(C)c3)c2-n2cccc2)cc1 | inactive | –
Cc1ccc(S(=O)(=O)NNc2ccccc2)cc1 | inconclusive: 2.24 µM [inhibitor, full curve, poor fit] | –
Cc1ccc(-c2ccc3cc(C)ccc3n2)cc1 | inactive | –
Clc1ccccc1-c1nccc(NCCN2CCOCC2)n1 | active: 44.7 µM | –
Cc1ccc(C2Cn3nnc(-c4noc(-c5ccoc5)n4)c3CO2)cc1 (centres undefined) | inactive | –
COc1cc(-c2nnn(CC(=O)NCc3ccccc3)n2)cc(OC)c1OC | inconclusive: 126 µM [inhibitor, partial curve, poor fit] | –
Cc1cnc2c(c1SCC(=O)NCc1ccc(F)cc1)c(=O)n(C)c(=O)n2C | inactive and inconclusive: 112 µM [inhibitor, single point] | –
COc1ccccc1/C=C1\SC(=S)N(C(C(=O)O)c2ccccc2)C1=O (centres undefined) | inconclusive: 126 µM [inhibitor, single point] | –
COc1cc2oc(=O)c(CC(=O)NCCc3ccccc3OC)c(C)c2cc1Cl | inconclusive: 100 µM [inhibitor, partial curve, poor fit] | –

Structure (SMILES) | Potency | activity change, negative = inhibition
CCCS(=O)(=O)NC[C@@H]1C=C(C)[C@H](Cc2nnc(-c3ccccc3F)o2)C[C@H]1C(C)C | inconclusive: 56.2 µM [inhibitor, partial curve] | –
CN(C)[C@@H]1CCC[C@H]1OC(=O)C(c1ccccc1)c1ccccc1 | inactive | –
CS(=O)(=O)Nc1cccc(-c2cncnc2NCc2cccnc2)c1 | inactive | –
COc1ccc(Cl)cc1S(=O)(=O)N1CCCC(C(=O)N2CCOCC2)C1 (centres undefined) | inconclusive: 1.58 µM [inhibitor, full curve, poor fit] | –
COc1ccc(CCNC(=S)Nc2ccc(OC)cc2)cc1 | inconclusive: 44.7 µM [inhibitor, partial curve, poor fit] | –
CC(C)Oc1ccccc1CN1C(=O)C(=O)c2ccccc21 | inconclusive: 39.8 µM [inhibitor, partial curve, poor fit] | –
COc1ccc(CN2CCN(c3ccccc3OC)CC2)c(OC)c1 | inconclusive: 0.316 µM [inhibitor, full curve, poor fit] | –
Cc1cccn2cc(-c3cc4ccccc4oc3=O)nc12 | inconclusive: 50.1 µM [inhibitor, partial curve] | –
O=C(Cc1ccccc1)NCc1n[nH]c(=S)n1-c1ccc(Br)cc1 | inconclusive: 89.1 µM [inhibitor, partial curve, poor fit] | –
COc1ccc(-c2csc(C(C)(O)c3cccc(OC)c3)n2)cc1 (centres undefined) | inconclusive: 89.1 µM [inhibitor, partial curve, poor fit] | –
COc1ccc2nc(-c3ccc4c(c3)OCO4)cc(C(=O)NCCN3CCOCC3)c2c1 | active: 39.8 µM | –
Cc1n[nH]c(=S)n(/N=C/c2cccc([N+](=O)[O-])c2)c1=O | inconclusive: 2.51 µM [inhibitor, full curve, poor fit] | –
COc1ccccc1/C(C)=N/NC(=O)c1nnn(-c2nonc2N)c1C(C)C | inactive | –
CCC(NC(=S)NC1CCCCC1)c1ccccc1 (centres undefined) | inconclusive: 31.6 µM [inhibitor, single point] | –
CCN(CC)c1ccc(S(=O)(=O)Nc2cc(Cl)ccc2Cl)cc1NC(=S)NC(=O)C1CCCC1 | inconclusive: 56.2 µM [inhibitor, partial curve, poor fit] | –
Cc1cccc(-c2nc(CS(=O)CC(=O)NCCCSC3CCCCC3)c(C)o2)c1 (centres undefined) | inconclusive: 50.1 µM [inhibitor, partial curve, poor fit] | –
COc1ccc(-n2c(=O)c3c(n2Cc2ccccc2)CN(C(=O)c2cccc(C#N)c2)CC3)cc1 | inactive | –
CN(c1ccccc1)S(=O)(=O)c1c(-c2cccc(F)c2)csc1C(=O)NCc1ccccc1 | inactive | –
O=C(O)C1Cc2nc[nH]c2CN1C(=O)c1cccc(-n2cccn2)c1 (centres undefined) | inconclusive: 7.94 µM [inhibitor, full curve] | –
O=C(O)Cn1cc(C(C(=O)O)N2CCN(Cc3ccccc3)CC2)c2ccc(Cl)cc21 (centres undefined) | inconclusive: 11.2 µM [inhibitor, full curve] | –
CCOC(=O)N/N=C\C=C\c1ccco1 | inconclusive: 39.8 µM [inhibitor, partial curve] | –
Cc1ccccc1C(=O)N1CCC2(CC1)NC(=O)N(c1ccc(F)cc1)N2 | inconclusive: 2.24 µM [inhibitor, full curve, poor fit] | –

Structure (SMILES) | Potency | activity change, negative = inhibition
O=C(c1cccc(F)c1)N1CCC(n2cc(-c3nc(C4CC4)no3)nn2)C1 (centres undefined) | inconclusive: 50.1 µM [inhibitor, partial curve] | –
Cn1cnc([N+](=O)[O-])c1S(=O)(=O)Oc1cccc2ccccc12 | inactive | –
C[C@H](CO)N1C[C@H](C)[C@H](CN(C)C(=O)Nc2ccc(C(F)(F)F)cc2)Oc2c(NC(=O)c3ccncc3)cccc2C1=O | inconclusive: 79.4 µM [inhibitor, partial curve, poor fit] | –
Clc1ccc(-c2nc3ccccn3c2Nc2ccc3c(c2)OCCO3)s1 | active: 25.1 µM | –
Cc1ccc(Cl)cc1NC(=S)N(CCCN1CCOCC1)Cc1ccccn1 | inactive | –
COc1cc(SC)ccc1C(=O)NC1CCCc2ccccc21 (centres undefined) | inactive | –
CCN(c1ccccc1)S(=O)(=O)c1ccc(C(=O)N(C)CCc2ccc(OC)c(OC)c2)cc1 | inactive | –
O=C(Cc1ccc(Br)cc1)NNC(=O)c1cccs1 | inactive | –
Cc1cccnc1C(NC(=O)C1CCN(CCOc2ccc(F)cc2)CC1)c1ccc(Cl)cc1 (centres undefined) | inconclusive: 44.7 µM [inhibitor, partial curve, poor fit] | –
CCOC(=O)c1ccccc1NC(=O)c1ccc2nccnc2c1 | inactive | –
Cc1cc2cc(-c3c(C)noc3C)nc(-c3ccc(CO)cc3)c2o1 | inconclusive: 39.8 µM [inhibitor, partial curve] | –
OCc1cccc(-c2csc(C(O)c3ccco3)n2)c1 (centres undefined) | inconclusive: 35.5 µM [inhibitor, partial curve, poor fit] | –
O=c1c2ccccc2[nH]c(=S)n1CCCn1ccnc1 | inconclusive: 112 µM [inhibitor, single point] | –
Cc1sc2c(c1C)C(=O)NC(c1ccccc1F)N2 (centres undefined) | inconclusive: 31.6 µM [inhibitor, partial curve, poor fit] | –
O=C(CN1C(=O)COc2ccc(C(=O)COc3ccc(F)cc3F)cc21)Nc1ccc(F)cc1 | inconclusive: 8.91 µM [inhibitor, full curve] | –
O=C(NCCOc1cccc2cccnc12)C1CCCN(C2CCCC2)C1 (centres undefined) | inactive | –
CC(C)(C)c1ccc(C(=O)CC(Sc2ccc(Cl)cc2)C(=O)O)cc1 (centres undefined) | inconclusive: 112 µM [inhibitor, partial curve, poor fit] | –
COC(=O)c1ccc(C(=O)OC)c(NC(=O)Cc2cccs2)c1 | inconclusive: 44.7 µM [inhibitor, partial curve, poor fit] | –
Cc1ccccc1CSc1cn(CC(=O)N2CCCC2)c2ccccc12 | inconclusive: 50.1 µM [inhibitor, partial curve, poor fit] | –
CCN(Cc1ccccc1)C(=O)Cn1c(=O)oc2cc(S(=O)(=O)N3CCCCCC3)ccc21 | inconclusive: 89.1 µM [inhibitor, partial curve, poor fit] | –

Single records, from the list above:
`O=C(CN1C(=O)COc2ccc(C(=O)COc3ccc(F)cc3F)cc21)Nc1ccc(F)cc1` in the list: Potency: inconclusive: 8.91 µM [inhibitor, full curve]
`Cc1ccccc1CSc1cn(CC(=O)N2CCCC2)c2ccccc12` in the list: Potency: inconclusive: 50.1 µM [inhibitor, partial curve, poor fit]
`Cc1cc2cc(-c3c(C)noc3C)nc(-c3ccc(CO)cc3)c2o1` in the list: Potency: inconclusive: 39.8 µM [inhibitor, partial curve]
